In assay [1] the target is FLAG-tagged galectin-3 (UniProt P17931). As to the kind of experiment: SEC; anti-FLAG affinity eluate of HEK-293T cells stably expressing FLAG-Gal3 fractionated by FPLC on a Superose 6 column (dithiothreitol-containing buffer, 0.5 ml/min); immunoblot of the fractions.
In assay [2] the target is galectin-3 (human (endogenous in HEK-293T)) (UniProt P17931). The assay is described as follows: co-IP; endogenous proteins of HEK-293T lysate; precipitation with anti-galectin-3 and blots for the partners, or precipitation with antibodies against the partners and blot for galectin-3; protein G agarose beads, 4 C.
Assay [3] deals with FLAG-tagged galectin-3 (UniProt P17931). As to the kind of experiment: co-IP; lysates of HEK-293T cells transfected with a FLAG-tagged galectin (FLAG-Gal3, FLAG-Gal2, FLAG-Gal4), anti-FLAG M2 affinity gel, immunoblot of the endogenous proteins; lysis buffer 50 mM Tris-HCl pH 8.0, 150 mM NaCl, 0.5% NP40; for FLAG-Gal3 also after starvation of amino acids and glucose for 1 h and LPS (1 ug/ml) for 5 h (binding to RagA/RagC and p14/p18 enhanced, still none to GATOR1 or GATOR2). (Immunoblotting shows a protein as a band on a membrane.)

The chains behind the UniProt entries cited, without tags or fusion partners.
UniProt P17931: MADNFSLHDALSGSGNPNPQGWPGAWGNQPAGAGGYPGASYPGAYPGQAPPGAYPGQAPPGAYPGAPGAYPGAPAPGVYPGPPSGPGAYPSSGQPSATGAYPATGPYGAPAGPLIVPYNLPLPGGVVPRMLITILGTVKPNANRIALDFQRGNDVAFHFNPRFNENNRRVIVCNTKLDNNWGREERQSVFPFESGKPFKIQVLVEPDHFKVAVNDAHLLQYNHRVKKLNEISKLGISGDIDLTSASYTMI
UniProt P21281: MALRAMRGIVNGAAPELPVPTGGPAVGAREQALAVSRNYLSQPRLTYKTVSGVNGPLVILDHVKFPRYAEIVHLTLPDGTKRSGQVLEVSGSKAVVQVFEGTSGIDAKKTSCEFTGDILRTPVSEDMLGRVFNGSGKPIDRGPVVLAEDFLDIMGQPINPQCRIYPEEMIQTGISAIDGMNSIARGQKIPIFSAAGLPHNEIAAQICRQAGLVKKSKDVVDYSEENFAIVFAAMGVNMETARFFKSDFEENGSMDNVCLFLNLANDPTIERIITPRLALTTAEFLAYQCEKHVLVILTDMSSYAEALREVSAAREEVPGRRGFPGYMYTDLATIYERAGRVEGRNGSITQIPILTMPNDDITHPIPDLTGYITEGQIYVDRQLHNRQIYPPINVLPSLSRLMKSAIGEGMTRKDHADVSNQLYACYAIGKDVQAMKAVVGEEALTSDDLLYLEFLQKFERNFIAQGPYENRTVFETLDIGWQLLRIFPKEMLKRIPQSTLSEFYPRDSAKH

In assay [4] the target is galectin-3 (co-expressed from a plasmid with RagA/RagC and p14/p18) (UniProt P17931). As to the kind of experiment: co-IP; HEK-293T cells co-transfected with plasmids for galectin-3, RagA/RagC (wild type or mutants) and p14/p18; anti-FLAG precipitation, immunoblot; the experiments with Rag mutants after LPS (1 ug/ml) for 6 h.
A further assay addresses GST-galectin-3 (UniProt P17931). As to the kind of experiment: pull-down; about 5 ug GST fusion protein on glutathione-Sepharose beads with 5-8 ul in vitro transcribed/translated product; 75 mM NaCl, 50 mM HEPES pH 7.9, 4 C, 2 h; western blot; only the target purified.
The next assay has as its target GST-fused RagC (UniProt Q9HB90). Described as above.
Another assay deals with GST-fused p14 (UniProt Q9Y2Q5). The description is as above.
For the next assay, the target named is GST-fused p18 (UniProt Q6IAA8). The description is as above.
Assay [5] deals with FLAG-Gal3 (in HepG2 cells) (UniProt P17931). As to the kind of experiment: co-IP; lysates of HepG2 cells transfected with FLAG-Gal3, anti-FLAG precipitation, immunoblot of the endogenous proteins.
Assay [6] deals with RagC (human (endogenous in HEK-293T)) (UniProt Q9HB90). The assay is described as follows: co-IP; endogenous proteins of HEK-293T lysate; precipitation with anti-galectin-3 and blots for the partners, or precipitation with antibodies against the partners and blot for galectin-3; protein G agarose beads, 4 C.
The target in assay [7] is p14 (human (endogenous in HEK-293T)) (UniProt Q9Y2Q5). Described as above.
The target in assay [8] is p18 (human (endogenous in HEK-293T)) (UniProt Q6IAA8). The assay is described as above.
In another assay the target is T1, FLAG-galectin-4 (UniProt P56470).
T1 sequence: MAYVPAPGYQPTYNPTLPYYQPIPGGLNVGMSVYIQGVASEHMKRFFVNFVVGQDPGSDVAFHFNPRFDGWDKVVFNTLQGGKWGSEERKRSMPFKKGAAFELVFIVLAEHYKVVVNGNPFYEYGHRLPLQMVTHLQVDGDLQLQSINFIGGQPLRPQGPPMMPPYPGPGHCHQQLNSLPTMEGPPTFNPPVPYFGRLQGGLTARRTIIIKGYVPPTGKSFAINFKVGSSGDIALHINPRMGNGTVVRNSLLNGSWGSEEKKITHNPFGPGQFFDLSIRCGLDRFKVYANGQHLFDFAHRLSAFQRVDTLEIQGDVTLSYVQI
As to the kind of experiment: co-IP; lysates of HEK-293T cells transfected with a FLAG-tagged galectin (FLAG-Gal3, FLAG-Gal2, FLAG-Gal4), anti-FLAG M2 affinity gel, immunoblot of the endogenous proteins; lysis buffer 50 mM Tris-HCl pH 8.0, 150 mM NaCl, 0.5% NP40; for FLAG-Gal3 also after starvation of amino acids and glucose for 1 h and LPS (1 ug/ml) for 5 h (binding to RagA/RagC and p14/p18 enhanced, still none to GATOR1 or GATOR2).

No constants are given. Whether binding was seen depends on the method and setting. For part of these data: Binding seen in cells or lysates may run through a third protein. Some entries that bind do so weakly or less than the wild type. For part of these data: Where a sequence is shown, tags or fusion partners need not be part of it.

Consider p14 (from UniProt Q9Y2Q5 1-125), for which the binding entry (in the assay with FLAG-tagged galectin-3 [1]; in assay [2]; in the assay with FLAG-tagged galectin-3 [3]) was “binds” in each case.

Turning to “RagC (co-expressed from a plasmid) (from UniProt Q9HB90 1-399)”, the binding result in assay [4] was “binds”.

On to “in vitro transcribed/translated RagA (from UniProt Q7L523 1-313) (other; other documents disagree on this pair)”, for which the binding result with GST-galectin-3 is given as “binds”.

“in vitro transcribed/translated galectin-3 (from UniProt P17931 1-250)”: the binding entry with GST-fused RagC, with GST-fused p14 and with GST-fused p18 was “binds” each time.

With RagA^Q66L (from UniProt Q7L523 1-313), the binding entry in assay [4] is listed as “binds”.

“in vitro transcribed/translated p14 (from UniProt Q9Y2Q5 1-125)”: in the assay with GST-galectin-3, the binding result is “binds”.

Turning to “RagC (in HepG2 cells) (from UniProt Q9HB90 1-399)”, in [5], the binding result was “binds”.

Take RagC^S75N (from UniProt Q9HB90 1-399): the binding result in assay [4] is given as “binds”.

Take “RagA (in HepG2 cells) (from UniProt Q7L523 1-313) (other; other documents disagree on this pair)”: in assay [5], the binding entry is recorded as “binds”.

Take “RagA (from UniProt Q7L523 1-313) (other; other documents disagree on this pair)”: the binding result (in the assay with FLAG-tagged galectin-3 [1]; in assay [2]; with FLAG-tagged galectin-3 [3]) was “binds” in each case.

Regarding “p14 (in HepG2 cells) (from UniProt Q9Y2Q5 1-125)”, in [5], the binding result is listed as “binds”.

Take galectin-3 (from UniProt P17931 1-250): the binding result in assay [6], in [7] and in [8] was “binds” throughout.

As for ATP6V1B2 (from UniProt P21281 1-511), the binding entry with FLAG-galectin-4 is listed as “binds”.

Turning to “p14 (co-expressed from a plasmid) (from UniProt Q9Y2Q5 1-125)”, in assay [4], the binding result is recorded as “binds”.

For “RagA (co-expressed from a plasmid) (from UniProt Q7L523 1-313) (other; other documents disagree on this pair)”, in [4], the binding entry is “binds”.

Take “in vitro transcribed/translated RagC (from UniProt Q9HB90 1-399)”: the binding entry in the assay with GST-galectin-3 was “binds”.

In the case of RagC (from UniProt Q9HB90 1-399), the binding entry (with FLAG-tagged galectin-3 [1]; in assay [2]; in the assay with FLAG-tagged galectin-3 [3]) was “binds” each time.

(Values after paper PMC9732310.)
